Measurements as given in patent US7141680B2, “Aromatic compounds possessing antifungal or antibacterial activity” (Genelabs Technologies, Inc., priority 2002, dated 2006).
Some entries share one result that the patent states for a list of compounds.

System: Aspergillus species
Test: Minimum inhibitory concentration (MIC) assay, filamentous fungi
Assay type: cell-based
Details: antifungal activity; lowest concentration at which 75% inhibition of growth is observed after 48 h
Experimental: The assays described below were used to measure the minimum inhibitory concentration (MIC) of a compound necessary to inhibit visible growth of the organism tested. These assays are adapted from NCCLS protocols M7-A4 and M27-A (NCCLS vol 17:9 and vol 17:2) as modified by Sandven, S., Clin. Micro. (1999) 37:12, p. 3856–3859. MIC values for Aspergillus species were determined using NCCLS protocol M38-P.
All compounds were dissolved in 100% DMSO to a stock concentration of 10 mM and used fresh stock compounds in powder form were kept frozen until needed and used freshly. When used for test purposes, compounds were diluted in the appropriate media depending on the organism being tested.
For yeast and aspergillus species, seven 1:2 serial dilutions of compound in appropriate media buffered with MOPS at pH 7.0 were prepared such that the final starting test compound concentrations were 44.4 μM for yeast and 50 μM aspergillus species. For bacteria, dilutions were made in growth media used for the particular bacteria being tested.
Inoculums are made by incubating Aspergillus species for 7 days at 35° C. on potato dextrose agar slants. Slants are then covered with 1.0 mL of 0.85% saline, one drop of Tween 20 is added and colonies are teased with a sterile transfer loop to create a suspension which is allowed to sit for 5 min so heavier particles can drop out. […]

Row | Substance | MIC
1 | 1H-Indole-2,5-dicarboxylic acid 2-{[2-(N′,N″-dimethylguanidino)ethyl]amide} 5-({2-[2-(N′,N″-dimetlhylguanidino)ethylcarbamoyl]-1H-indol-5-yl}amide) [Compound 56] | ≤ 50 µM
2 | 1H-Indole-2,5-dicarboxylic acid 2-{[5-(3-carbamimidoyl-propylcarbamoyl)-1-(3-methyl-butyl)-1H-pyrrol-3-yl]-amide} 5-[(2-guanidino-ethyl)-amide] [Compound 103] | ≤ 50 µM
